According to PMC10847424:
No constants are given. Whether binding was seen depends on the method and setting. In cells and extracts the contact can be indirect. Some entries that bind do so weakly or less than the wild type. For some of these results: Tags and fused reporters may be left off the sequences shown.

Chains of the proteins cited; added tags and fusions are not shown. Residues count along the entry.
UniProt Q62318: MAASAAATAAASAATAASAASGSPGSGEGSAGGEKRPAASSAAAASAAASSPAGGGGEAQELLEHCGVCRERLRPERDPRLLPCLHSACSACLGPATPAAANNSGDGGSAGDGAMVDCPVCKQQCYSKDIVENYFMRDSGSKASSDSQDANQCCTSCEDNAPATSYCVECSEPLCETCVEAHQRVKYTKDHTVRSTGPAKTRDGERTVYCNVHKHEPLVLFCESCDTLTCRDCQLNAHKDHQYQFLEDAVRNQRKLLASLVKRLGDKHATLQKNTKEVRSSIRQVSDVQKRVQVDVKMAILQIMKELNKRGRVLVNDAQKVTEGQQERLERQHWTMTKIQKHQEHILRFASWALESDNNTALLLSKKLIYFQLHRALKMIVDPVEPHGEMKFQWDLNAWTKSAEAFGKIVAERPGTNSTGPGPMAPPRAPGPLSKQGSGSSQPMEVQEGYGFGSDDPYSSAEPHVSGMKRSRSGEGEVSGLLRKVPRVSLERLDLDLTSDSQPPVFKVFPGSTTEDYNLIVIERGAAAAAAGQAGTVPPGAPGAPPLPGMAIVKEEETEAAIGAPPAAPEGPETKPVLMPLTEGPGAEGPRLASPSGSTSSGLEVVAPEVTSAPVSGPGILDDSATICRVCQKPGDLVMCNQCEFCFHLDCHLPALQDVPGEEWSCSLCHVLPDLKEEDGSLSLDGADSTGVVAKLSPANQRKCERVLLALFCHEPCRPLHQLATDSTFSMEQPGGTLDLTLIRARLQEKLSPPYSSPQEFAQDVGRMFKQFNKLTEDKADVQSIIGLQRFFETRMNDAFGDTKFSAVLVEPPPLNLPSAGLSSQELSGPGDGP
UniProt P14625, residues 22-803: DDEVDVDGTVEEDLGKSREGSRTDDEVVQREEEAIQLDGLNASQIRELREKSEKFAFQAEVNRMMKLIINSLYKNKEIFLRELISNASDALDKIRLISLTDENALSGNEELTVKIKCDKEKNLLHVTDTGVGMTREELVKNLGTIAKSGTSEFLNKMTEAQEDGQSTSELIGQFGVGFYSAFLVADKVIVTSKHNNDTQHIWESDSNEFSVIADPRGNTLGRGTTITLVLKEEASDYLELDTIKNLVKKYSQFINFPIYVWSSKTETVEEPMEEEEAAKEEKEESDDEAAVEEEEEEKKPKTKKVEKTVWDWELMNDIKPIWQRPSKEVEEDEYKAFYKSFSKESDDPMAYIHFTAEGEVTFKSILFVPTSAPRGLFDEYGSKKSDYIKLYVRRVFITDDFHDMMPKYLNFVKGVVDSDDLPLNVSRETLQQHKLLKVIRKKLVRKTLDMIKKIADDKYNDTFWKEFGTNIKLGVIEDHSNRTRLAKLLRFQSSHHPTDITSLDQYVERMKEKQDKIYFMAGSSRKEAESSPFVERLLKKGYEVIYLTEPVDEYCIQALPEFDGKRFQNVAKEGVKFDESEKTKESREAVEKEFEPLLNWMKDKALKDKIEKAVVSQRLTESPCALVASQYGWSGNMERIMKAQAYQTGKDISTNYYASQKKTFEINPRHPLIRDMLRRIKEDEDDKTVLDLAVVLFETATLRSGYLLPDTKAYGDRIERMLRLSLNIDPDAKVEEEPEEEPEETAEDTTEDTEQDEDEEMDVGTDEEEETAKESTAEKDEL
UniProt P08113, residues 22-802: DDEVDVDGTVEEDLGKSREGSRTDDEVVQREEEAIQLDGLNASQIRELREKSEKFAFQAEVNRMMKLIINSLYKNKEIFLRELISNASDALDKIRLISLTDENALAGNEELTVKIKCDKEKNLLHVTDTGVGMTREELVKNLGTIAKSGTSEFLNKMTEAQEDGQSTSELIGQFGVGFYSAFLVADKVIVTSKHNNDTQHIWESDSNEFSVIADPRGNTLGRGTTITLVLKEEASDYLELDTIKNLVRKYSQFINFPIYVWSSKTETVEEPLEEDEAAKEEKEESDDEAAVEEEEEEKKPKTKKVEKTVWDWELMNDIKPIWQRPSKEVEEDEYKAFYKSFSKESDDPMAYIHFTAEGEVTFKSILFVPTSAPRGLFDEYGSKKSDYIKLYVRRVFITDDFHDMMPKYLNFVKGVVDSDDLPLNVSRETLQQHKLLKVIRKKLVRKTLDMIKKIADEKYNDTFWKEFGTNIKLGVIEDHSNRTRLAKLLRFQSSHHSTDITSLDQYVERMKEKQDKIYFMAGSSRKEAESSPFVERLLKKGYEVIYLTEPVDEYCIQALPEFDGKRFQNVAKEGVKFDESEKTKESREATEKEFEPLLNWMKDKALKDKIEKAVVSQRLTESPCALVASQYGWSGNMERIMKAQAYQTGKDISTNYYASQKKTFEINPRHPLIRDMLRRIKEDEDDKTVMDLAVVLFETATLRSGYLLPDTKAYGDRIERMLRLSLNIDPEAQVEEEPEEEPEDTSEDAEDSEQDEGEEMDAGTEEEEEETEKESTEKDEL

Experiments:
HA-Trim28 = HA-Trim28 (UniProt Q62318); assay: co-IP; exogenous co-IP in HEK293 lysates (WT, gp96 knockout, with gp96 overexpressed, or stably expressing Eomes or Flag-gp96); anti-HA, anti-flag or anti-myc beads 3 h, washes with 20 mM Tris-HCl, 125 mM NaCl, 5 mM MgCl2, 0.2 mM EDTA, 0.1% NP-40
His-Eomes = target: T1, His-Eomes (UniProt O54839); assay: co-IP; WT and gp96 knockout 293 cells co-transfected with His-Eomes and GFP-P62, treated as in Fig. 6H (CQ or MG132), IP-Western
T1 sequence: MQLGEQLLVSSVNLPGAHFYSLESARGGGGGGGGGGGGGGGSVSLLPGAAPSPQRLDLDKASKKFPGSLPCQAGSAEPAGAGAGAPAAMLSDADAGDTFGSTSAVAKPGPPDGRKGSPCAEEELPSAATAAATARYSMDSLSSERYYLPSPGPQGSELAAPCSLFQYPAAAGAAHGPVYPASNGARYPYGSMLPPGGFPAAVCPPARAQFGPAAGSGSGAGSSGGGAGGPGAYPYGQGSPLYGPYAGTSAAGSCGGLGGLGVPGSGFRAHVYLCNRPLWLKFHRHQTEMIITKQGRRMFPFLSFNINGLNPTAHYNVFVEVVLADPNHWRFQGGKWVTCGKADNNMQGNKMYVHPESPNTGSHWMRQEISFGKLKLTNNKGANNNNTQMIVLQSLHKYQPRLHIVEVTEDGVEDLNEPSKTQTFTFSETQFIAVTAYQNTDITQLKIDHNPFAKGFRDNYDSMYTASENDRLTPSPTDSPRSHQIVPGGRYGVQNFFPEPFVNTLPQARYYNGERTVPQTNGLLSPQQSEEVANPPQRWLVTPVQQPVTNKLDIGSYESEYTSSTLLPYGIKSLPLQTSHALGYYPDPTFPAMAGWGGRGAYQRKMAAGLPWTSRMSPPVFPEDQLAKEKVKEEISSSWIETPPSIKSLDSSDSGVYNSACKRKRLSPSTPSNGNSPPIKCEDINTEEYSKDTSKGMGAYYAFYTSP

[1] = target: Trim28 (endogenous, mouse NK cells) (mouse (endogenous in primary NK cells)) (UniProt Q62318); assay: co-IP; immunoprecipitation from cytosol, nucleus and total membrane (ER and plasma membrane) fractions of NK cells
[2] = target: T2, Eomes (endogenous, mouse NK cells) (mouse (endogenous in primary NK cells)) (UniProt O54839); assay: as above
T2 sequence: T1 sequence

In the case of Flag-gp96 (from UniProt P14625 22-803), the binding (HA-Trim28) is reported as “binds”.
In the case of GFP-P62 (from UniProt Q13501 1-440), the binding (His-Eomes) is reported as “binds”.
“gp96 (endogenous, NK cells) (from UniProt P08113 22-802)” was tested, and the binding [1] was “binds” and the binding [2] was “binds”.
